Columns and labels:
[1] = Hueing Efficiency Value test (rinse with vs without hueing dye, CIE L*a*b* colour difference); settings: about 30 ppm hueing dye in rinse solution, 30 minutes, ambient room temperature
[2] = Wash Removal Value test (Launderometer wash of hued Fabric Samples, AATCC Test Method 61-2003 No. 2A); settings: for Wash Removal Value: 100×(1−DE*res/DE*eff), as a percentage; for Residual Coloration DE*res: after Launderometer wash, 0.15 wt. % AATCC Detergent, 49° C., 45 minutes

Structure (SMILES): Cc1cc(C)c(S(=O)(=O)[O-])c(C)c1Nc1ccc(Nc2c(C)cc(C)c(S(=O)(=O)[O-])c2C)c2c1C(=O)c1ccccc1C2=O.[Na+].[Na+] [Acid Brilliant Blue RAWL]
- Hueing Efficiency Value DE*eff [1]: 14.40
- Wash Removal Value [2]: 93%
- Residual Coloration DE*res [2]: 0.98

Structure (SMILES): CCN(Cc1cccc(S(=O)(=O)[O-])c1)c1ccc(C(=C2C=CC(=[N+](C)C)C=C2)c2ccc(N(CC)Cc3cccc(S(=O)(=O)O)c3)cc2)cc1.[Na] [Acid Violet 49]
- Hueing Efficiency Value DE*eff [1]: 47.26
- Wash Removal Value [2]: 95%
- Residual Coloration DE*res [2]: 2.58

Structure (SMILES): O=S(=O)([O-])c1cc(O)c2c(/N=N/c3ccc(Nc4ccccc4)c4c(S(=O)(=O)[O-])cccc34)cc(S(=O)(=O)[O-])cc2c1.[Na+].[Na+].[Na+] [Anazolene Sodium]
- Hueing Efficiency Value DE*eff [1]: 23.57
- Wash Removal Value [2]: 98%
- Residual Coloration DE*res [2]: 0.48

Structure (SMILES): CCN(CC)c1ccc(C(=C2C=CC(=[N+](CC)CC)C=C2)c2ccc(N(CC)CC)cc2)cc1.[Cl-] [Ethyl violet]
- Hueing Efficiency Value DE*eff [1]: 93.08
- Wash Removal Value [2]: 25%
- Residual Coloration DE*res [2]: 70.17
